Some of the results follow. Further columns of the screen follow, without active or inactive calls. The list favours compounds with an active or inconclusive main result. The note in brackets gives the kind of curve behind each potency; many fits are weak.
Experiment: Cell signaling CRE-BLA (Fsk stim)
Details: CHO CRE-bla reporter (cAMP response element driving beta-lactamase), forskolin EC10, beta-lactamase ratio; measured here: 460 nm blue channel
Summary of the method: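 CRE-bla CHO cells stimulated with EC10 NKH 477 (water-soluble forskolin) and compound titrations, 3 h at 37C; beta-lactamase read with CCF4 after 2 h at room temperature. Activity from 460/530 nm emission ratio, AC50 values for positive or negative modulation.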

Row | SMILES | AC50
1 | CCOc1ccc(Br)cc1/C=N/O | 0.398 µM [rising, full curve]
2 | COC(=O)c1ccc(CSc2nc3ccccc3s2)o1 | 12.6 µM [rising, single point]
3 | CC(C)Oc1ccccc1C1CC(=O)Nc2cc3c(cc21)OCO3 (stereo not drawn) | 5.01 µM [rising, partial curve]
4 | COc1ccc(C2C=C(C)Nc3nc(SC)nn32)cc1 (stereo not drawn) | 10 µM [rising, partial curve]
5 | COc1ccccc1-c1ccc2ncnc(NCc3cnc(C)cn3)c2c1 | 6.31 µM [rising, partial curve]
6 | Cc1ccc(OCc2nnc(SCC(=O)c3ccccc3)n2Cc2ccco2)cc1 | 25.1 µM [falling, single point]
7 | COc1ccc(-c2nc3cnc(N(C)C)nc3n(Cc3ccc(F)cc3)c2=O)cc1 | 1.58 µM [rising, full curve]
8 | CCOC(=O)c1c(NC(=O)c2ccn(CC)n2)sc2c1CCCC2 | 5.01 µM [rising, partial curve]
9 | CCOC(=O)C1CCN(C(=O)CSc2cc(=O)n(CC)c3ccccc23)CC1 | 0.0794 µM [falling, full curve, poor fit]
10 | Cc1ccc(S(=O)(=O)Nc2ccc(NC(=O)CN3CCCCC3)cc2)cc1 | 0.00316 µM [falling, full curve, poor fit]
11 | CCCCn1c(SCc2ncc(-c3ccccc3)o2)nc2cc(S(N)(=O)=O)ccc21 | 12.6 µM [rising, single point]
12 | CCN(CC(=O)NCCc1ccc(S(N)(=O)=O)cc1)Cc1nc2ccccc2c(=O)[nH]1 | 0.794 µM [rising, full curve]
13 | O=c1cc(N2CCc3ccccc3C2)[nH]c(=O)n1-c1ccc(Br)cc1 | 1.26 µM [falling, partial curve, poor fit]
14 | COCCn1c(=S)[nH]c2cc(C(=O)N3CCc4ccccc43)ccc2c1=O | 25.1 µM [rising, single point]
15 | COc1ccc(C(=O)c2no[n+]([O-])c2C(=O)c2ccc(OC)cc2)cc1 | 12.6 µM [falling, partial curve]
16 | Cc1cc(C(=O)CN2C(=O)NC(Cc3c[nH]c4ccccc34)C2=O)c(C)n1C (stereo not drawn) | 0.794 µM [falling, full curve]
17 | CCCN(CCC(=O)Nc1ccccc1F)CC1CC1 | 0.398 µM [rising, full curve]
18 | CCOc1ccc2[nH]c(=O)c(CN(Cc3cccs3)Cc3nnnn3C(C)(C)CC)cc2c1 | 15.8 µM [falling, partial curve]
19 | NCCC[C@@H](CC(=O)N[C@@H]1CCNC[C@H]1C(=O)N[C@H](CC(=O)N[C@@H](CCC(=O)O)CC(=O)O)Cc1c[nH]c2ccccc12)NC(=O)C[C@H](CO)NC(=O)[C@@H]1CCCC[C@H]1N | 10 µM [falling, partial curve]
20 | COc1ccc(C(C)=O)c(OC(=O)c2ccc(OC)c(OC)c2)c1 | 5.01 µM [rising, partial curve]
21 | CCOc1cc(C)c(Cl)cc1S(=O)(=O)n1nnc2ccccc21 | 12.6 µM [falling, partial curve]
22 | Cc1ccc(-c2c3c(=O)n(C)c(=O)n(C)c3cn2Cc2ccccn2)cc1 | 3.98 µM [falling, partial curve]
23 | Cc1cccc2cc3c(NC(=O)C(C)C)nn(C)c3nc12 | 2.51 µM [rising, full curve]

Row | SMILES | AC50
24 | COCCNC(=O)Cc1cn(C)c2ccccc12 | 0.00316 µM [falling, full curve, poor fit]
25 | Cc1ccc(/C=c2\s/c(=C(/C#N)C(=O)N3CCCC3)n(Cc3ccco3)c2=O)s1 | 5.01 µM [rising, single point]
26 | c1ccc2c(c1)oc1c(N3CCOCC3)ncnc12 | 5.01 µM [falling, partial curve]
27 | Cc1ccc(C(=O)CSc2nnc(-c3ccco3)n2CC2CCCO2)cc1 (stereo not drawn) | 20 µM [falling, single point]
28 | O=C(c1ccc(Br)s1)N1CCN(Cc2ccc3c(c2)OCO3)CC1 | 0.00316 µM [falling, full curve, poor fit]
29 | CCOC(=O)c1c(C)[nH]c(C(=O)OCc2c(C)noc2C)c1C | 3.98 µM [rising, full curve]
30 | COc1ccc(N(CC(=O)Nc2ccc(OC)c(Cl)c2)S(=O)(=O)c2c(C)noc2C)cc1 | 3.16 µM [falling, single point]
31 | Oc1c(C(Nc2ccccn2)c2ccccn2)ccc2cccnc12 (stereo not drawn) | 2.51 µM [rising, full curve]
32 | Cc1ccccc1Cn1cc(NC(=O)c2cc(-c3cccs3)on2)cn1 | 15.8 µM [falling, partial curve]
33 | CCOC(=O)N1CCC(NC(=O)c2ccc3c(c2)ncn3C2CCCC2)CC1 | 10 µM [rising, single point]
34 | Brc1cnc(N2CCCC2)nc1N1CCOCC1 | 25.1 µM [rising, single point]
35 | Cc1c(C(=O)NCC2CCCO2)sc2nc(-c3ccc(F)cc3)cn12 (stereo not drawn) | 7.94 µM [rising, partial curve]
36 | O=C(CSc1oc(-c2ccco2)nc1S(=O)(=O)c1ccccc1)NCC1CCCO1 (stereo not drawn) | 0.00398 µM [falling, full curve, poor fit]
37 | Cc1ccc(NC(=O)CSC(N)=O)cc1Cl | 12.6 µM [falling, single point]
38 | COCCNC(=O)c1ccccc1NC(=O)c1ccc(OC)c(OC)c1 | 10 µM [rising, partial curve]
39 | COc1ccc(Br)cc1-c1nc(C)c(C(C)=O)n1O | 0.631 µM [falling, single point]
40 | COc1ccc(COn2c(=O)c(C)[n+]([O-])c3ccccc32)cc1OC | 10 µM [rising, partial curve]
41 | C=CCn1c(SCc2nc3c(c(=O)[nH]c(=O)n3CCCC)n2CCC)nnc1-c1ccccc1 | 3.98 µM [rising, full curve]
42 | O=C(c1cccnc1)N1CCCc2ccccc21 | 0.00316 µM [falling, full curve, poor fit]
43 | O=C(Oc1ccc2c(c1)OCO2)c1ccncc1 | 5.01 µM [falling, partial curve]
44 | CCCCN1CCCCC1C(=O)Nc1c(C)cc(C)cc1C (stereo not drawn) | 31.6 µM [falling, partial curve]
45 | CCCCCCCCCCCCOS(=O)(=O)O | 25.1 µM [falling, single point]
46 | COc1ccc(CCNC(=O)Cc2cc(=O)[nH]c(=O)[nH]2)cc1OC | 5.01 µM [rising, single point]

Two records drawn at random from the list so far:
Row | SMILES | AC50
31 | Oc1c(C(Nc2ccccn2)c2ccccn2)ccc2cccnc12 (stereo not drawn) | 2.51 µM [rising, full curve]
5 | COc1ccccc1-c1ccc2ncnc(NCc3cnc(C)cn3)c2c1 | 6.31 µM [rising, partial curve]

(list continues)

Row | SMILES | AC50
47 | CN1CCN(c2ncc3nc(-c4cccs4)c(=O)n(CCc4ccccc4)c3n2)CC1 | 2.51 µM [rising, full curve]
48 | COc1ccc(OC(C)C(=O)N2CCN(c3ccccn3)CC2)cc1 (stereo not drawn) | 15.8 µM [rising, single point]
49 | C=CCn1c(C)cc(C(=O)CSc2nc3ccccc3c(=O)[nH]2)c1C | 10 µM [rising, single point]
50 | Cc1cc(C)n2nc(SCC(=O)N(C(C)C)C(C)C)nc2n1 | 2.51 µM [rising, full curve, poor fit]
51 | Cc1ccc(NC(=O)NC(=O)CN2C(=O)NC3(CCCCCCC3)C2=O)c(C)c1 | 25.1 µM [rising, single point]
52 | O=C(O)COc1ccc2c(c1)CCCC2 | 0.00398 µM [falling, full curve, poor fit]
53 | COc1ccccc1-c1ccc2ncnc(N(C)C)c2c1 | 3.16 µM [rising, full curve]
54 | Cc1nc2sc(C(c3ccco3)N3CCN(c4ccc(F)cc4)CC3)c(O)n2n1 (stereo not drawn) | 1.26 µM [rising, full curve]
55 | Cc1cccc(CNc2cc(-c3cccc(NS(C)(=O)=O)c3)ncn2)c1 | 3.16 µM [rising, full curve]
56 | CCCCOc1ccc(-c2nnn(CCC(=O)N3CCOCC3)n2)cc1 | 10 µM [rising, single point]
57 | CSC1=NC(NCCCO)c2c(sc3c2CC(C)(C)OC3)N1 (stereo not drawn) | 12.6 µM [rising, partial curve]
58 | Cc1ccc(C)c(Cn2nnc3c(=O)[nH]c(C4CCCN(C(=O)C5CCCCC5)C4)nc32)c1 (stereo not drawn) | 15.8 µM [rising, single point]
59 | COC(=O)c1cc2oc3ccccc3c2n1Cc1ccccn1 | 25.1 µM [rising, single point]
60 | CCn1nc(NC(=O)c2ccncc2)c2cc3cccc(C)c3nc21 | 2.51 µM [rising, full curve]
61 | N#C/C(=C\c1ccc(O)c(O)c1)C(N)=O | 31.6 µM [rising, single point]
62 | Cn1c(=O)n(Cc2ccccc2)c(=O)c2c1nc1n2CCS1 | 12.6 µM [rising, partial curve]
63 | CC(=O)NC(CCS(C)(=O)=O)C(=O)Nc1nccs1 (stereo not drawn) | 2.51 µM [falling, partial curve]
64 | CCOC(=O)C(C(C)=O)c1nc(C)nc2c1nnn2Cc1ccccc1Cl (stereo not drawn) | 10 µM [rising, partial curve]
65 | c1ccc(CCc2nn3c(Cn4nnc5ccccc54)nnc3s2)cc1 | 10 µM [rising, single point]
66 | CCc1ccc2oc(=O)cc(CN3CCN(CCO)CC3)c2c1 | 1 µM [rising, single point]
67 | OCCN1CCN(c2nc(-c3ccccc3)nc3c2oc2ccccc23)CC1 | 10 µM [rising, single point]
68 | C=CCc1cccc2cc(C(=O)N(C)C)c(=O)oc12 | 0.01 µM [falling, full curve, poor fit]

3 compounds out of the list, sorted by SMILES length, smallest number first.
Row | SMILES | AC50
68 | C=CCc1cccc2cc(C(=O)N(C)C)c(=O)oc12 | 0.01 µM [falling, full curve, poor fit]
35 | Cc1c(C(=O)NCC2CCCO2)sc2nc(-c3ccc(F)cc3)cn12 (stereo not drawn) | 7.94 µM [rising, partial curve]
11 | CCCCn1c(SCc2ncc(-c3ccccc3)o2)nc2cc(S(N)(=O)=O)ccc21 | 12.6 µM [rising, single point]
